Reference: paper PMC7191749, “Low phosphatase activity of LiaS and strong LiaR-DNA affinity explain the unusual LiaS to LiaR in vivo stoichiometry” (BMC Microbiology, 2020)

The chains behind the UniProt entries cited, without tags or fusion partners. Where a name states a change or a piece, a line headed by the entry shows the natural chain unless it says otherwise.
UniProt O32197: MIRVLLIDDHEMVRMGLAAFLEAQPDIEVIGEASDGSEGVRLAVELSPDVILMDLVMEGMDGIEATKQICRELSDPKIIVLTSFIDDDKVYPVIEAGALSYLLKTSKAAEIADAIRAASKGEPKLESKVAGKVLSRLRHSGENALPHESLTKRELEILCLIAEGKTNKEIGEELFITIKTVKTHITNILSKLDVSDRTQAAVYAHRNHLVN

Molecular target: LiaR~P (acetyl phosphate treated) (Bacillus subtilis 168) (UniProt O32197)
Assay: EMSA
Settings: affinity slightly enhanced over unphosphorylated, EMSA: 10 mM Tris pH 7.5, 50 mM KCl, 1 mM DTT, 5 mM MgCl2, 10 ng herring sperm DNA, 2.5% glycerol, 25 C, 30 min, 9% native PAGE, recombinant protein, residues 1-211, label: 5'-32P, probe letters rebuilt from the primers and the genome

Q: Does “TTCATGCAGATCCTCCTTTCGTTTTCCTTGTCTTCATCTTATACAAGTTGGAAGATATGCAAAACGAATCAGAGATTGATTTTTATATAAGACCGGAGTCGTATCTCGCACCGGACCCATTGGCACAAAAAAACGCCATGCACGAGGCATGGCGTTTTAAAACCCTTTACAGATGAACACTTGCTTCCCTTTC (double strand) [PliaI (-162 to +31)]” bind?
A: Result: binds

For at least one entry, the source does not settle the construct or the ends of the probe.
